The test system of the assay is BDF1 mice, s.c. Lewis lung carcinoma, T/C %. The assay is described as follows: NCI In Vivo Anticancer Drug Screen. Data for tumor model Lewis Lung Carcinoma (subcutaneous) in B6D2F1 (BDF1) mice. The procedure, abridged:
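Antitumor effect in vivo is scored from survival or tumor burden, reported as treated relative to vehicle controls.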

[1] abbreviates: T/C endpoint: median survival time, dose: 8.0 mg/kg/injection, schedule: Q01DX009 (ip), vehicle: saline, higher T/C = longer survival.
[2] abbreviates: T/C endpoint: mean tumor weight, dose: 120.0 mg/kg/injection, schedule: Q01DX011 (ip), vehicle: other, higher T/C = larger tumour.
Where [3] appears, read: T/C endpoint: mean tumor weight, dose: 400.0 mg/kg/injection, schedule: Q01DX011 (ip), vehicle: saline, evaluated on day 12, higher T/C = larger tumour.

Each structure is given as a SMILES string. The list shows only some results of the screen, not a fair sample: it gathers tests that were run many times, whatever their T/C, doses with no T/C, and many T/C values between a quarter and a half above the control. Other doses and runs of a compound stand elsewhere. T/C is the treated group as % of the vehicle group. Schedules are NCI's codes, taken here to give the interval after Q, in days (D) or hours (H), and the number of doses after X. Some T/C values carry the count of animals alive at the toxicity check (mostly the fifth day); without a count, all were alive then. Some entries give survivors of the animals treated and no T/C: the source holds a T/C of zero for them, seemingly a mark for toxic or unscored doses. Some doses without a T/C left all or most animals alive at the check, yet need not have been tolerated: the source hardly ever lists a survival T/C far under the control, and the zero likely stands for such cases as well. Survivors were counted at the toxicity check, usually on the fifth day, unless a day is given; later deaths do not show. Some doses were run more than once; the results are listed from low to high. For survival time, this PubChem deposit counts one and a half times the control or more as active, and values a quarter to a half above the control carry no call in these data; other NCI protocols may use other cut-offs.

Turning to `O=C(Nc1ccc2c(c1)Cc1cccc(NC(=O)C(Cl)Cl)c1-2)C(Cl)Cl`, the survivor count (T/C endpoint: mean tumor weight, dose: 90.0 mg/kg/injection, schedule: Q01DX011 (ip), vehicle: carboxymethylcellulose (CMC), higher T/C = larger tumour) was 1 of 6; the survivor count (T/C endpoint: mean tumor weight, dose: 180.0 mg/kg/injection, schedule: Q01DX011 (ip), vehicle: carboxymethylcellulose (CMC), higher T/C = larger tumour) was 1 of 6 and 2 of 6; the survivor count (T/C endpoint: mean tumor weight, dose: 270.0 mg/kg/injection, schedule: Q01DX011 (ip), vehicle: carboxymethylcellulose (CMC), higher T/C = larger tumour) is 3 of 6; the survivor count (T/C endpoint: mean tumor weight, dose: 400.0 mg/kg/injection, schedule: Q01DX011 (ip), vehicle: carboxymethylcellulose (CMC), higher T/C = larger tumour) is 2 of 6. In addition, the T/C (T/C endpoint: mean tumor weight, dose: 400.0 mg/kg/injection, schedule: Q01DX011 (ip), vehicle: carboxymethylcellulose (CMC), evaluated on day 12, higher T/C = larger tumour) was 135 % of control [4 of 6 alive].

Take `CCC1CCC(NC(=O)N(CCF)N=O)CC1` (centres undefined): under “T/C endpoint: median tumor weight (est.), dose: 75.0 mg/kg/injection, schedule: Q01DX001 (ip), vehicle: saline with Tween-80, higher T/C = larger tumour”, the survivor count was 2 of 10 on day 18.

With `C=C1CC/C=C(\C)CCC2C1CC2(C)C` (centres undefined), for the setting “T/C endpoint: mean tumor weight, dose: 200.0 mg/kg/injection, schedule: Q01DX011 (ip), vehicle: saline, higher T/C = larger tumour”, the survivor count was 2 of 6.

Take `CCCCCCCCCCCC[N+](C)(C)Cc1ccccc1`: the survivor count is, setting by setting: (T/C endpoint: median survival time, dose: 0.5 mg/kg/injection, schedule: Q01DX009 (ip), vehicle: saline, higher T/C = longer survival) 10 of 10; under setting [1], 5 of 10; (T/C endpoint: median survival time, dose: 500.0 micrograms/kg/injection, schedule: Q01DX009 (ip), vehicle: saline, higher T/C = longer survival) 10 of 10.

Regarding `Cc1ccc(N=NN(C)C)cc1`, the survivor count runs as follows: (T/C endpoint: mean tumor weight, dose: 30.0 mg/kg/injection, schedule: Q01DX011 (ip), vehicle: other, higher T/C = larger tumour) 0 of 6; under setting [2], 0 of 6.

Regarding `O=c1cc(-c2ccc(O)cc2)oc2c(O)c(O)c(O)c(O)c12`, for the setting “T/C endpoint: mean tumor weight, dose: 400.0 mg/kg/injection, schedule: Q01DX011 (ip), vehicle: saline, higher T/C = larger tumour”, the survivor count was 0 of 6.

As for `CC(C)C[CH2][Pb]([Cl])([CH2]CC(C)C)[CH2]CC(C)C`, for the setting “T/C endpoint: median survival time, dose: 0.12 mg/kg/injection, schedule: Q01DX009 (ip), vehicle: Klucel (hydroxypropylcellulose) (HPC), higher T/C = longer survival”, the T/C is 125 % of control.

On to `CCCCCC[C@H]([C@H](C)O)n1cnc2c(N)ncnc21`, for which the survivor count (T/C endpoint: median survival time, dose: 200.0 mg/kg/injection, schedule: Q01DX009 (ip), vehicle: Klucel (hydroxypropylcellulose) (HPC), higher T/C = longer survival) is recorded as 3 of 10.

As to `CC1(C)N=C(N)N=C(N)N1c1ccc(F)c(C(F)(F)F)c1`, the survivor count (T/C endpoint: median survival time, dose: 50.0 mg/kg/injection, schedule: Q01DX009 (ip), vehicle: saline, higher T/C = longer survival) is given as 10 of 10 and the survivor count (T/C endpoint: median survival time, dose: 100.0 mg/kg/injection, schedule: Q01DX009 (ip), vehicle: saline, higher T/C = longer survival) was 2 of 10.

Take `[N-]=[N+]=CC(=O)CCC(N)C(=O)O` (centres undefined): the survivor count reads like this: (T/C endpoint: median survival time, dose: 0.3 mg/kg/injection, schedule: Q01DX009 (ip), vehicle: saline, higher T/C = longer survival) 10 of 10; (T/C endpoint: median survival time, dose: 34.0 mg/kg/injection, schedule: Q04DX003 (ip), vehicle: saline, higher T/C = longer survival) 10 of 10; (T/C endpoint: median survival time, dose: 51.0 mg/kg/injection, schedule: Q04DX003 (ip), vehicle: saline, higher T/C = longer survival) 10 of 10. The T/C by setting is: (T/C endpoint: median survival time, dose: 23.0 mg/kg/injection, schedule: Q04DX003 (ip), vehicle: saline, higher T/C = longer survival) 133 % of control; (T/C endpoint: median survival time, dose: 140.0 mg/kg/injection, schedule: Q01DX001 (ip), vehicle: saline, higher T/C = longer survival) 135 % of control.

`SCc1ccccn1`: the survivor count (T/C endpoint: mean tumor weight, dose: 300.0 mg/kg/injection, schedule: Q01DX011 (ip), vehicle: carboxymethylcellulose (CMC), higher T/C = larger tumour) is 2 of 6.

`O=c1[nH]c2cc(Cl)c(Cl)cc2o1`: the survivor count was 2 of 6 (T/C endpoint: mean tumor weight, dose: 170.0 mg/kg/injection, schedule: Q01DX011 (ip), vehicle: carboxymethylcellulose (CMC), higher T/C = larger tumour) and 0 of 6 (T/C endpoint: mean tumor weight, dose: 255.0 mg/kg/injection, schedule: Q01DX011 (ip), vehicle: carboxymethylcellulose (CMC), higher T/C = larger tumour).

`O=c1[nH]c(=O)c2[nH]cnc2[nH]1`: under setting [3], the T/C was 135 % of control.

With `CCCCCCCCCCCC(c1ccccc1)[N+](C)(C)C` (centres undefined), the survivor count (T/C endpoint: median survival time, dose: 4.0 mg/kg/injection, schedule: Q01DX009 (ip), vehicle: saline, higher T/C = longer survival) is recorded as 10 of 10 and the survivor count under setting [1] is reported as 6 of 10.

For `O=c1[nH]cc(F)c(=O)[nH]1`, the survivor count is, setting by setting: (T/C endpoint: mean tumor weight, dose: 40.0 mg/kg/injection, schedule: Q01DX011 (ip), vehicle: saline, higher T/C = larger tumour) 0 of 6; (T/C endpoint: median survival time, dose: 5.0 mg/kg/injection, schedule: Q01DX009 (ip), vehicle: Klucel (hydroxypropylcellulose) (HPC), higher T/C = longer survival) 10 of 10; under setting [1], 10 of 10; (T/C endpoint: median survival time, dose: 16.0 mg/kg/injection, schedule: Q01DX009 (ip), vehicle: saline, higher T/C = longer survival) 9 of 10; (T/C endpoint: median survival time, dose: 32.0 mg/kg/injection, schedule: Q01DX009 (ip), vehicle: saline, higher T/C = longer survival) 10 of 10; (T/C endpoint: median survival time, dose: 40.0 mg/kg/injection, schedule: Q01DX009 (ip), vehicle: Klucel (hydroxypropylcellulose) (HPC), higher T/C = longer survival) 9 of 10. The survivor count is reported as 10 of 10 (T/C endpoint: median survival time, dose: 40.0 mg/kg/injection, schedule: Q01DX009 (ip), vehicle: saline with Tween-80, higher T/C = longer survival); 8 of 8 (T/C endpoint: median survival time, dose: 40.0 mg/kg/injection, schedule: Q01DX009 (ip), vehicle: saline, higher T/C = longer survival); 10 of 10 (T/C endpoint: median survival time, dose: 64.0 mg/kg/injection, schedule: Q01DX009 (ip), vehicle: saline, higher T/C = longer survival); 6 of 10 on day 36 (T/C endpoint: median survival time, dose: 125.0 mg/kg/injection, schedule: Q04DX002 (ip), vehicle: saline, higher T/C = longer survival); 9 of 10 (T/C endpoint: median survival time, dose: 128.0 mg/kg/injection, schedule: Q01DX009 (ip), vehicle: saline, higher T/C = longer survival); 10 of 10 (T/C endpoint: median survival time, dose: 256.0 mg/kg/injection, schedule: Q01DX009 (ip), vehicle: saline, higher T/C = longer survival). In addition, under “T/C endpoint: median tumor weight (est.), dose: 40.0 mg/kg/injection, schedule: Q01DX009 (ip), vehicle: Klucel (hydroxypropylcellulose) (HPC), higher T/C = larger tumour”, the survivor count is 6 of 10. In addition, the T/C is, setting by setting: (T/C endpoint: median survival time, dose: 5.0 mg/kg/injection, schedule: Q01DX009 (ip), vehicle: saline with Tween-80, higher T/C = longer survival) 125 % of control; (T/C endpoint: median survival time, dose: 10.0 mg/kg/injection, schedule: Q01DX009 (ip), vehicle: saline with Tween-80, higher T/C = longer survival) 125 % of control; (T/C endpoint: median survival time, dose: 20.0 mg/kg/injection, schedule: Q01DX009 (ip), vehicle: Klucel (hydroxypropylcellulose) (HPC), higher T/C = longer survival) 132 % of control; (T/C endpoint: median survival time, dose: 20.0 mg/kg/injection, schedule: Q01DX009 (ip), vehicle: saline, higher T/C = longer survival) 142 % of control; (T/C endpoint: median survival time, dose: 60.0 mg/kg/injection, schedule: Q04DX004 (ip), vehicle: saline, higher T/C = longer survival) 141 % of control.

On to `CC(=O)NNC(=O)c1ccccn1`, for which the survivor count is, setting by setting: (T/C endpoint: median survival time, dose: 50.0 mg/kg/injection, schedule: Q01DX009 (ip), vehicle: Klucel (hydroxypropylcellulose) (HPC), higher T/C = longer survival) 10 of 10; (T/C endpoint: median survival time, dose: 400.0 mg/kg/injection, schedule: Q01DX009 (ip), vehicle: Klucel (hydroxypropylcellulose) (HPC), higher T/C = longer survival) 0 of 10.

On to `O=CC1CO1` (centres undefined), for which, where the note is “T/C endpoint: mean tumor weight, dose: 100.0 mg/kg/injection, schedule: Q01DX011 (ip), vehicle: saline, higher T/C = larger tumour”, the survivor count is 0 of 6.

Consider `CC(=O)c1c(O)c(C)c(O)c(Cc2c(O)c3c(c(C(=O)/C=C/c4ccccc4)c2O)OC(C)(C)C=C3)c1O`, for which the survivor count (T/C endpoint: mean tumor weight, dose: 50.0 mg/kg/injection, schedule: Q01DX011 (ip), vehicle: saline, higher T/C = larger tumour) is recorded as 0 of 6.

For the molecule `CN(C)CCOC(=O)COc1ccc(Cl)cc1`, under “T/C endpoint: median survival time, dose: 300.0 mg/kg/injection, schedule: Q01DX005 (ip), vehicle: saline, higher T/C = longer survival”, the T/C was 136 % of control [6 of 8 alive].

Consider `O=C(O)c1cc(O)c(O)c(O)c1`, for which the T/C (T/C endpoint: mean tumor weight, dose: 100.0 mg/kg/injection, schedule: Q01DX011 (ip), vehicle: saline, evaluated on day 12, higher T/C = larger tumour) is 128 % of control.

Regarding `COc1ccc2c(=O)cc(-c3ccccc3)n(C)c2c1`, under setting [3], the T/C was 127 % of control.

For the molecule `C1CC[N-]CC1.C1CC[N-]CC1.C1CC[N-]CC1.C1CC[N-]CC1.[Cl][Co][Cl]`, the survivor count under setting [2] is listed as 2 of 6; the survivor count (T/C endpoint: median survival time, dose: 5.0 mg/kg/injection, schedule: Q01DX009 (ip), vehicle: saline, higher T/C = longer survival) was 10 of 10; the survivor count (T/C endpoint: median survival time, dose: 37.5 mg/kg/injection, schedule: Q01DX009 (ip), vehicle: saline with Tween-80, higher T/C = longer survival) is given as 9 of 10; the survivor count (T/C endpoint: median survival time, dose: 75.0 mg/kg/injection, schedule: Q01DX009 (ip), vehicle: saline with Tween-80, higher T/C = longer survival) is 5 of 10; the survivor count (T/C endpoint: median survival time, dose: 150.0 mg/kg/injection, schedule: Q01DX009 (ip), vehicle: saline with Tween-80, higher T/C = longer survival) is reported as 0 of 10; the survivor count (T/C endpoint: median survival time, dose: 300.0 mg/kg/injection, schedule: Q01DX009 (ip), vehicle: saline with Tween-80, higher T/C = longer survival) was 0 of 10.

The values are drawn from PubChem BioAssay AID270 (DTP/NCI, 2004).
